Results as given in article PMC4468146.
No constants are given. Whether binding was seen depends on the method and setting. In cells and extracts the contact can be indirect. These calls come from enrichment with a bait or labelling near it, and not all partners need be listed.

Protein sequences, listed by entry. Tags and fused reporters are not part of them. Residues count along the entry.
UniProt P47871, residues 26-477: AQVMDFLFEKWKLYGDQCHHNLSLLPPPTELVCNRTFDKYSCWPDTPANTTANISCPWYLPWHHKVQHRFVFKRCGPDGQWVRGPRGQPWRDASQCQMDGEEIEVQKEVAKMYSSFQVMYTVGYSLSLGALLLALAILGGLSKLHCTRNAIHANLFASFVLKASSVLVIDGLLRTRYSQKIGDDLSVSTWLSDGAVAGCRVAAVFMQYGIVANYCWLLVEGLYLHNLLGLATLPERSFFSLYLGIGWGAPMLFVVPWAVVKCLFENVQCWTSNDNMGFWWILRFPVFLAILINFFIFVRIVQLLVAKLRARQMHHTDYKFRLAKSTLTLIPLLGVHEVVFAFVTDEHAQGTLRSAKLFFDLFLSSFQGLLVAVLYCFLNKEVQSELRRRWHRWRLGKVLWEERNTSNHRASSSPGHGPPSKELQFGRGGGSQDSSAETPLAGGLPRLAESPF

Target: human glucagon receptor (GCGR), C-terminal Flag-tagged (human) (UniProt P47871)
Experiment: affinity purification with mass spectrometry; anti-Flag M2 affinity gel on lysates of CHO cells transfected with GCGR-Flag, with or without glucagon (10 nM, 5 minutes); lysis buffer 10% glycerol, 50 mM HEPES pH 7.4, 150 mM NaCl, 2 mM EDTA, 0.25% DDM; elution with ammonium hydroxide pH 11.0, trypsin, LC-MS/MS; three repeats; control cells without GCGR-Flag

B1: ADSS (protein, UniProt V5QSN9 1-456)
chain: MSISESNPAAASLPNGDCGRPRAPPGGNRVTVVLGAQWGDEGKGKVVDLLAQDADIVCRCQGGNNAGHTVVVDSVEYDFHLLPSGIINPNVTAFIGNGVVIHLPGLFEEAEKNVQKGKGLDGWEKRLIISDRAHIVFDFHQAADGIQEQQRQEQAGKNLGTTKKGIGPVYSSKAARSGLRMCDLVSDFDGFSERFKVLANQYKSIYPTLEIDIEGELQKLKGYMERIKPMVRDGVYFLYEALHGPPKKILVEGANAALLDIDFGTYPFVTSSNCTVGGVCTGLGMPPQNVGEVYGVVKAYTTRVGIGAFPTEQDNEIGELLQTRGREFGVTTGRKRRCGWLDLVLLKYAHMINGFTALALTKLDILDMFTEIKVGVAYKLDGEIIPHFPANQEVLNKVEVQYKTLPGWNTDISNARTFKELPVNAQNYVRFIEDELQIPVKWIGVGKSRESMIQLF
  binding: binds

B2: SPTLC2 (protein, UniProt O54694 1-560)
chain: MRPEPGGCCCRRPLRANGCVKNGEVRNGYVRSSTATAAAAGQIHHVTENGGLYKRPFNEVFEETPMLVAVLTYVGYGVLTLFGYLRDFLRHWRIEKCHHATEREEQKDFVSLYQDFENFYTRNLYMRIRDNWNRPICSVPGARVDIMERQSHDYNWSFKYTGNIIKGVINMGSYNYLGFARNTGSCQEAAAEVLKEYGAGVCSTRQEIGNLDKHEELEKLVARFLGVEAAMTYGMGFATNSMNIPALVGKGCLILSDELNHASLVLGARLSGATIRIFKHNNMQSLEKLLKDAIVYGQPRTRRPWKKILILVEGIYSMEGSIVRLPEVIALKKKYKAYLYLDEAHSIGALGPSGRGVVDYFGLDPEDVDVMMGTFTKSFGASGGYIGGKKALIDYLRTHSHSAVYATSMSPPVMEQIITSMKCIMGQDGTSLGKECVQQLAENTKYFRRRLKEMGFIIYGNEDSPVVPLMLYMPAKIGAFGREMLKRNVGVVVVGFPATPIIESRARFCLSAAHTKEILDTALKEIDEVGDLLQLKYSRRRLVPLLDRPFDETTYEETED
  binding: binds
